Literature values, collected in patent US6852741B2, “Compositions and methods for treatment of neurological disorders” (University of Florida, priority 2001, dated 2005).
For at least one compound, name, drawing or mass did not settle the structure.

Sequences of proteins named here, by UniProt entry; tags and fusion partners are left off. A change or cut given only in a name is not applied to a line headed by its entry. Residues count along the entry.
UniProt P04757, 26-499: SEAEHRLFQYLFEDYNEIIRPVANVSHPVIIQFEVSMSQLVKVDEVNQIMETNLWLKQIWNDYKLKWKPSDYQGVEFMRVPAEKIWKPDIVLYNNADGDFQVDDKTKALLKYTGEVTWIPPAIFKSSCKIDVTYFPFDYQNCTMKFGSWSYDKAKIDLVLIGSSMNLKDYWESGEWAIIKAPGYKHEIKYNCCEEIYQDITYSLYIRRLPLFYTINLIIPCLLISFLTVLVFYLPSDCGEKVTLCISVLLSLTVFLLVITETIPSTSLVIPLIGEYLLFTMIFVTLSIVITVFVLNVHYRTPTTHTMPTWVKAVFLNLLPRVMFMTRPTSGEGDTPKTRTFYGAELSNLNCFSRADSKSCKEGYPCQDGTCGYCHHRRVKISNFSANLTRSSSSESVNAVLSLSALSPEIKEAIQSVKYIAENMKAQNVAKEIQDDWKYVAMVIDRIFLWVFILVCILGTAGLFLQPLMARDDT
UniProt P12392, 21-495 S268F/A272T: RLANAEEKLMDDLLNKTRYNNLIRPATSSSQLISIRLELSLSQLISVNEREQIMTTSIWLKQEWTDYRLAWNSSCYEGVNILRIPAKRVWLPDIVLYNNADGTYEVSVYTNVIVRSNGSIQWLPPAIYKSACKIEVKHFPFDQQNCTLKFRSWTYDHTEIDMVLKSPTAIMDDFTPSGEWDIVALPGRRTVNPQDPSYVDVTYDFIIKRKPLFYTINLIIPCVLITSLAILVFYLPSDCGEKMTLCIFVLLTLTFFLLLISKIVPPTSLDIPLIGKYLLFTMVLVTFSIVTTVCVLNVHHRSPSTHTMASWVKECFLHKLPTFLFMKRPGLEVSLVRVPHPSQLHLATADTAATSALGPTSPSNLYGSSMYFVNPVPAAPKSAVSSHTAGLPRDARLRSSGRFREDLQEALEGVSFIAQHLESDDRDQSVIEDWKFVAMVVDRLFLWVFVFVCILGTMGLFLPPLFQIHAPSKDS
UniProt P12392, 21-495: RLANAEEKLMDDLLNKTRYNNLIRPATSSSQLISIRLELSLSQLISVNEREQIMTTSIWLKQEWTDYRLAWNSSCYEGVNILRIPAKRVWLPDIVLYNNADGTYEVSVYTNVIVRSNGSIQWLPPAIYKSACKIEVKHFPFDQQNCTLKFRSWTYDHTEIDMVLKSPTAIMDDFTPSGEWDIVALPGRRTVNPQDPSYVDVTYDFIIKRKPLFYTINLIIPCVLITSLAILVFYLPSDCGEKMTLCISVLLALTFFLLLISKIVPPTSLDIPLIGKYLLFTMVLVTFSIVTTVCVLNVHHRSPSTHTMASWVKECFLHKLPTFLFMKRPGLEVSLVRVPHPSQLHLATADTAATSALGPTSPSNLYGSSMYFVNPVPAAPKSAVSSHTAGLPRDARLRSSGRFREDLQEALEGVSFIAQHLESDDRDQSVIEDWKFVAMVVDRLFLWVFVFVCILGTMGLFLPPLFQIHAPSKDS

Key:
[1] = target: T1, α3β4(6′F10′T) nicotinic acetylcholine receptor (Rattus norvegicus, UniProt P04757+P12392, A272T/S268F); settings: data taken from Papke et al., 2001; cited from earlier work
T1 construct: expressed in transfected cells; host or cells: Xenopus laevis oocytes injected with subunit cRNAs; mutant made by QuikChange site-directed mutagenesis

[2] = target: T2, α3β4 nicotinic acetylcholine receptor (Rattus norvegicus, UniProt P04757+P12392); settings: data taken from Papke et al., 2001; cited from earlier work
T2 construct: expressed in transfected cells; host or cells: Xenopus laevis oocytes injected with subunit cRNAs

CC(=O)OCC[N+](C)(C)C [ACh, acetylcholine]
n (Hill coefficient) [1]: 0.8 ± 0.1
n (Hill coefficient) [2]: 2.1 ± 0.6
